Values from PubChem BioAssay AID504791 (Drosophila RNAi Screening Center, 2011)

Assay: 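Factors in Argonaute-based small RNA production and activity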 (primary screen)
Cell system: Drosophila S2-derived reporter cells
Reagent: long dsRNA against Drosophila genes, about 150-250 ng dsRNA per well (siRNA assay); about 80-120 ng (miRNA assay)
Time to read-out: about 5 days (siRNA assay); about 4 days (miRNA assay)
Conditions: copper sulfate induction of reporters: 25 µM (siRNA assay); 200 mM stated (miRNA assay), 1-2 days before reading
Detection: 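Per-well ratio of Renilla over firefly light, expressed relative to that plate's average ratio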
Units: stable assay Renilla, run 1 in luminescence; stable assay firefly, run 1 in luminescence
Hit rule: 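a well was a first-pass pick when its plate-scaled ratio rose above 1.5 (siRNA assay) or 1.6 (miRNA assay), or dropped below 0.6; a gene counted only if two separate dsRNAs agreed on retest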
The deposit covers about 23,000 reagents; below is an unselected part of those with a known target gene and a result. In the full data, 199 (0.86%) were called active. 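Plate-scaled ratios behind the calls are not deposited; printed light signals are raw; many rows marked increased or decreased are still called inactive.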 Unmarked entries are inactive. The numbers tell different reagents against one gene apart. A plus sign joins genes that one reagent is predicted to hit. Reagent sequences are not shown. Not given: the direction of the score.

scb #1 showed stable assay Renilla, run 1 = 6751; stable assay firefly, run 1 = 3.08e5.
scb #2 gave stable assay Renilla, run 1 = 5855; stable assay firefly, run 1 = 3.09e5.
l(3)neo38 #1 showed stable assay Renilla, run 1 = 5219; stable assay firefly, run 1 = 4.63e5.
With knock-down of l(3)neo38 #2, the record shows stable assay Renilla, run 1 = 7271; stable assay firefly, run 1 = 3.60e5.
l(3)neo38 #3 gave stable assay Renilla, run 1 = 5379; stable assay firefly, run 1 = 5.01e5.
With knock-down of CG34290, the screen gave stable assay Renilla, run 1 = 5607; stable assay firefly, run 1 = 3.86e5.
Against beat-Ib the deposit lists stable assay Renilla, run 1 = 8106; stable assay firefly, run 1 = 3.87e5.

2 successive records already listed, quoted:
CG34290 | stable assay Renilla, run 1: 5607; stable assay firefly, run 1: 3.86e5
beat-Ib | stable assay Renilla, run 1: 8106; stable assay firefly, run 1: 3.87e5

Continued:
CG1354 gave stable assay Renilla, run 1 = 5507; stable assay firefly, run 1 = 4.25e5.
After knock-down of CG15676, the screen gave stable assay Renilla, run 1 = 6791; stable assay firefly, run 1 = 4.23e5.
After knock-down of BEAF-32 + CG42254 (retired record), the screen gave stable assay Renilla, run 1 = 6791; stable assay firefly, run 1 = 5.05e5.
Knock-down of ATPsynE gave: stable assay Renilla, run 1 = 7196; stable assay firefly, run 1 = 4.51e5.
CG11180 scored stable assay Renilla, run 1 = 9367; stable assay firefly, run 1 = 3.73e5.
